PMC4471195
These are yes or no findings as the source states them, for the method shown. Binding seen in cells or lysates may run through a third protein.

Sequences of proteins named here, by UniProt entry; tags and fusion partners are left off. Residues count along the entry.
UniProt P55854, residues 1-92: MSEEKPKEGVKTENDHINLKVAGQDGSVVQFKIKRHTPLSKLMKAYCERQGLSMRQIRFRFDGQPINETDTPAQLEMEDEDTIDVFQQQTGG
UniProt Q7Z494: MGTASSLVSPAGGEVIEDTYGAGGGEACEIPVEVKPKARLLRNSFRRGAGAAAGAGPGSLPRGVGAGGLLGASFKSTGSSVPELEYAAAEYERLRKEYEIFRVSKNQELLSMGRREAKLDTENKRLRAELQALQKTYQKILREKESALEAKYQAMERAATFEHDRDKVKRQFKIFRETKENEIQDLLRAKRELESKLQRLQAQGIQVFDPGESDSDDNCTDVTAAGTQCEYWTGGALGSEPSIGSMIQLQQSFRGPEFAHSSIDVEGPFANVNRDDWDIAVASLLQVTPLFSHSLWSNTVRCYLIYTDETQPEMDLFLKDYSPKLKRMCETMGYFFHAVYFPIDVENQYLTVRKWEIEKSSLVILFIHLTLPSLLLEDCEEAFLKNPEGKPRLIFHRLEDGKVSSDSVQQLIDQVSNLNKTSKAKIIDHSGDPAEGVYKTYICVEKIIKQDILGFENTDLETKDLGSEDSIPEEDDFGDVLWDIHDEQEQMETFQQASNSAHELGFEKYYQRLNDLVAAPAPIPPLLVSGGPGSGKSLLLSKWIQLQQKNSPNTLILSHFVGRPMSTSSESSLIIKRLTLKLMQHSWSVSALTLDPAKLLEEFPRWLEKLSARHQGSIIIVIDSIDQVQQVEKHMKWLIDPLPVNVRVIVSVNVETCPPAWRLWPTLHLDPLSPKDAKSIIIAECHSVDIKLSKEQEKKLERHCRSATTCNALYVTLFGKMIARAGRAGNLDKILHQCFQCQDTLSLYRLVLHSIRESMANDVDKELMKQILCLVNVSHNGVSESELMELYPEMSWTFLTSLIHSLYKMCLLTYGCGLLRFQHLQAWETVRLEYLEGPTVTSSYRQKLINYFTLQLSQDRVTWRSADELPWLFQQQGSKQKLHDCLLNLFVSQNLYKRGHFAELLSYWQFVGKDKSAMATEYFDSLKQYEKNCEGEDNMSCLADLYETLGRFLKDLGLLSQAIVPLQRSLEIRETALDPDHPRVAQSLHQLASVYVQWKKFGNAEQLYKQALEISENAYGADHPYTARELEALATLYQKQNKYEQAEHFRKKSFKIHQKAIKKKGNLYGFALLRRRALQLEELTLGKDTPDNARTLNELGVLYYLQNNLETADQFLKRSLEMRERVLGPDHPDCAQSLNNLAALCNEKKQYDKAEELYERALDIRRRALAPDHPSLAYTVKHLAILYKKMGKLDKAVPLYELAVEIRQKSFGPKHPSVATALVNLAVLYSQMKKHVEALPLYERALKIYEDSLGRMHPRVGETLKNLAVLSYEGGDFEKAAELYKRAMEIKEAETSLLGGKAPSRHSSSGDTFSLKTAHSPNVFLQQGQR

Target: His-tagged SUMO-3 (UniProt P55854)
Assay: pull-down; His-tagged SUMO proteins co-transfected with V5-tagged proteins in HEK 293T, 36 h; Ni-NTA beads, non-denaturing conditions; anti-V5 blot

V5-tagged NPHP3 (from UniProt Q7Z494 1-1330)
binding: no binding
